For the experiment, the target named is IL-34 (species not stated). Put plainly: summary of the binding results of Tables 2, 3 and 4.

These results are taken from patent publication US20210363232A1.

Results are given in words; binding and its absence hold for the method and conditions named. Binding calls can cover weak binding; strength is not graded here.

B1: Antibody 3 (antibody, mouse IgG1, kappa, V domains shown)
VH: EVQLLESGGGLVQPGGSLRLSCAASGFTFSYYAMSWVRQAPGKGLEWVSAISHRGGSTLYADSVKGRFTISRDNSKNTLYLQMNSLRAEDTAVYYCARGRSSLDGWGQGTMVTVSS
VL: EIVLTQSPGILSLSPGERASLSCRASTSVSSAYLAWYQQKPGQAPRLLIYASSHRPLGIPDRFSGSGSGTDFTLTISRLEPEDFAVYYCQQYGDSLSFGGGTKVEIKR
Consider B1, for which the binding entry was “binds”.
